{
  "source": "patent US20260018245A1",
  "about": "“SYSTEMS AND METHODS FOR IDENTIFYING AND TARGETING COLLATERAL LETHAL GENES” (The Regents of the University of Michigan, priority 2022, published 2026)",
  "test_system": "SKOV3 and OVCAR8 cells",
  "test": "Viability of shMTHFD2 cells supplemented with pyruvate",
  "type": "cell-based",
  "settings": "pyruvate supplementation",
  "note": "For at least one compound, name, drawing or mass did not settle the structure.",
  "data": [
    {"smiles": "CC(=O)C(=O)O", "note": "[pyruvate]", "values": [
      {"measurement": "rescue of UQCR11-null cells when MTHFD2 was knocked down", "result": "could not rescue"}
    ]}
  ]
}
